Assay results reported in the supplement of paper PMC10849652.
The list shows a part of the results.

Chains of the proteins cited; added tags and fusions are not shown. Lines headed by an entry give the natural chain unless they say otherwise; changes in a name come on top.
UniProt P14866: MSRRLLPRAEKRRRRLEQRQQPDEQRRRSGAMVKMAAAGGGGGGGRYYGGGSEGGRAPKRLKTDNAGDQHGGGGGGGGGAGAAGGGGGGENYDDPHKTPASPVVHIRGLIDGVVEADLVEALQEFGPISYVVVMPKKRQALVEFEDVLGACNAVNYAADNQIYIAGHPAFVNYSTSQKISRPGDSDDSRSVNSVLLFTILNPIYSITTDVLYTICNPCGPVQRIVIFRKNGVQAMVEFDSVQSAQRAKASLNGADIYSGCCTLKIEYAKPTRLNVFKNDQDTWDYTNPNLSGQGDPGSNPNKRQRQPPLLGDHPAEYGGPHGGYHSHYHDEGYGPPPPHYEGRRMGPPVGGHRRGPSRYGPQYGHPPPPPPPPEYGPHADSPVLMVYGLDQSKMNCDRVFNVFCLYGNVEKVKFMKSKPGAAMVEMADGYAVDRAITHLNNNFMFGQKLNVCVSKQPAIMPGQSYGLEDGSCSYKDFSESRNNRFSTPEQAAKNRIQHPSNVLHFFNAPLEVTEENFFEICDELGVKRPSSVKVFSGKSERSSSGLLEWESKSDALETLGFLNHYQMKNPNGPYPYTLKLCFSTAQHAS
UniProt Q8WVB3: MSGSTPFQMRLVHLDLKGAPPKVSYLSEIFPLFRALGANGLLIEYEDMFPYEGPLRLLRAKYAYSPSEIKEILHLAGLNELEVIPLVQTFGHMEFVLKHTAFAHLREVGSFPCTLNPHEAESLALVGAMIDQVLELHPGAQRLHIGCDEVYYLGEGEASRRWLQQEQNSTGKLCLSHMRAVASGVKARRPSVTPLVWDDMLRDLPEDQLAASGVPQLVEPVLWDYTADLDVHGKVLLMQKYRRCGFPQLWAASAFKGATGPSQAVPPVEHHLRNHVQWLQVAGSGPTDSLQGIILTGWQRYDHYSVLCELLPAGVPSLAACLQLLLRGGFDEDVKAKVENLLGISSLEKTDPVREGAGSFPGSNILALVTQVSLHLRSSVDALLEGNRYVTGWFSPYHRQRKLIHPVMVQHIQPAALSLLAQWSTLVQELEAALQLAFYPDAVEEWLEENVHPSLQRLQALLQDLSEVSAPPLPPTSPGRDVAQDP
UniProt P17066, whole entry, looked up: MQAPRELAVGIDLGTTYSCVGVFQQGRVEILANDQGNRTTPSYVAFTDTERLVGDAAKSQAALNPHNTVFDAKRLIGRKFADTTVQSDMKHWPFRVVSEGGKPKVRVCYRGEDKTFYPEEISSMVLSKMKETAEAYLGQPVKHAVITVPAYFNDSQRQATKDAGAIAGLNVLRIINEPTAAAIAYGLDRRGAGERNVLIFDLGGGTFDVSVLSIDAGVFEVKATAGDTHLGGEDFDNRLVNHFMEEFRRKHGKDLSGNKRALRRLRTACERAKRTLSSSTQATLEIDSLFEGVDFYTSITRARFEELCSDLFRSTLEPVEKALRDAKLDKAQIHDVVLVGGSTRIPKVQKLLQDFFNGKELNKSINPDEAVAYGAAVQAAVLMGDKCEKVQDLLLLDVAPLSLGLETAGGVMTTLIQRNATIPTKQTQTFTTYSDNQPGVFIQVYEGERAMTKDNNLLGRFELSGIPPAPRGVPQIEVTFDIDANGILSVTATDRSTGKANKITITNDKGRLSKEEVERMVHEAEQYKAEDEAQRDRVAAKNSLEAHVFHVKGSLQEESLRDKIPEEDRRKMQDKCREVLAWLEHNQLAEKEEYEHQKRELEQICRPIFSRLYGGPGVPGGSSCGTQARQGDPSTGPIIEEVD
UniProt Q15751: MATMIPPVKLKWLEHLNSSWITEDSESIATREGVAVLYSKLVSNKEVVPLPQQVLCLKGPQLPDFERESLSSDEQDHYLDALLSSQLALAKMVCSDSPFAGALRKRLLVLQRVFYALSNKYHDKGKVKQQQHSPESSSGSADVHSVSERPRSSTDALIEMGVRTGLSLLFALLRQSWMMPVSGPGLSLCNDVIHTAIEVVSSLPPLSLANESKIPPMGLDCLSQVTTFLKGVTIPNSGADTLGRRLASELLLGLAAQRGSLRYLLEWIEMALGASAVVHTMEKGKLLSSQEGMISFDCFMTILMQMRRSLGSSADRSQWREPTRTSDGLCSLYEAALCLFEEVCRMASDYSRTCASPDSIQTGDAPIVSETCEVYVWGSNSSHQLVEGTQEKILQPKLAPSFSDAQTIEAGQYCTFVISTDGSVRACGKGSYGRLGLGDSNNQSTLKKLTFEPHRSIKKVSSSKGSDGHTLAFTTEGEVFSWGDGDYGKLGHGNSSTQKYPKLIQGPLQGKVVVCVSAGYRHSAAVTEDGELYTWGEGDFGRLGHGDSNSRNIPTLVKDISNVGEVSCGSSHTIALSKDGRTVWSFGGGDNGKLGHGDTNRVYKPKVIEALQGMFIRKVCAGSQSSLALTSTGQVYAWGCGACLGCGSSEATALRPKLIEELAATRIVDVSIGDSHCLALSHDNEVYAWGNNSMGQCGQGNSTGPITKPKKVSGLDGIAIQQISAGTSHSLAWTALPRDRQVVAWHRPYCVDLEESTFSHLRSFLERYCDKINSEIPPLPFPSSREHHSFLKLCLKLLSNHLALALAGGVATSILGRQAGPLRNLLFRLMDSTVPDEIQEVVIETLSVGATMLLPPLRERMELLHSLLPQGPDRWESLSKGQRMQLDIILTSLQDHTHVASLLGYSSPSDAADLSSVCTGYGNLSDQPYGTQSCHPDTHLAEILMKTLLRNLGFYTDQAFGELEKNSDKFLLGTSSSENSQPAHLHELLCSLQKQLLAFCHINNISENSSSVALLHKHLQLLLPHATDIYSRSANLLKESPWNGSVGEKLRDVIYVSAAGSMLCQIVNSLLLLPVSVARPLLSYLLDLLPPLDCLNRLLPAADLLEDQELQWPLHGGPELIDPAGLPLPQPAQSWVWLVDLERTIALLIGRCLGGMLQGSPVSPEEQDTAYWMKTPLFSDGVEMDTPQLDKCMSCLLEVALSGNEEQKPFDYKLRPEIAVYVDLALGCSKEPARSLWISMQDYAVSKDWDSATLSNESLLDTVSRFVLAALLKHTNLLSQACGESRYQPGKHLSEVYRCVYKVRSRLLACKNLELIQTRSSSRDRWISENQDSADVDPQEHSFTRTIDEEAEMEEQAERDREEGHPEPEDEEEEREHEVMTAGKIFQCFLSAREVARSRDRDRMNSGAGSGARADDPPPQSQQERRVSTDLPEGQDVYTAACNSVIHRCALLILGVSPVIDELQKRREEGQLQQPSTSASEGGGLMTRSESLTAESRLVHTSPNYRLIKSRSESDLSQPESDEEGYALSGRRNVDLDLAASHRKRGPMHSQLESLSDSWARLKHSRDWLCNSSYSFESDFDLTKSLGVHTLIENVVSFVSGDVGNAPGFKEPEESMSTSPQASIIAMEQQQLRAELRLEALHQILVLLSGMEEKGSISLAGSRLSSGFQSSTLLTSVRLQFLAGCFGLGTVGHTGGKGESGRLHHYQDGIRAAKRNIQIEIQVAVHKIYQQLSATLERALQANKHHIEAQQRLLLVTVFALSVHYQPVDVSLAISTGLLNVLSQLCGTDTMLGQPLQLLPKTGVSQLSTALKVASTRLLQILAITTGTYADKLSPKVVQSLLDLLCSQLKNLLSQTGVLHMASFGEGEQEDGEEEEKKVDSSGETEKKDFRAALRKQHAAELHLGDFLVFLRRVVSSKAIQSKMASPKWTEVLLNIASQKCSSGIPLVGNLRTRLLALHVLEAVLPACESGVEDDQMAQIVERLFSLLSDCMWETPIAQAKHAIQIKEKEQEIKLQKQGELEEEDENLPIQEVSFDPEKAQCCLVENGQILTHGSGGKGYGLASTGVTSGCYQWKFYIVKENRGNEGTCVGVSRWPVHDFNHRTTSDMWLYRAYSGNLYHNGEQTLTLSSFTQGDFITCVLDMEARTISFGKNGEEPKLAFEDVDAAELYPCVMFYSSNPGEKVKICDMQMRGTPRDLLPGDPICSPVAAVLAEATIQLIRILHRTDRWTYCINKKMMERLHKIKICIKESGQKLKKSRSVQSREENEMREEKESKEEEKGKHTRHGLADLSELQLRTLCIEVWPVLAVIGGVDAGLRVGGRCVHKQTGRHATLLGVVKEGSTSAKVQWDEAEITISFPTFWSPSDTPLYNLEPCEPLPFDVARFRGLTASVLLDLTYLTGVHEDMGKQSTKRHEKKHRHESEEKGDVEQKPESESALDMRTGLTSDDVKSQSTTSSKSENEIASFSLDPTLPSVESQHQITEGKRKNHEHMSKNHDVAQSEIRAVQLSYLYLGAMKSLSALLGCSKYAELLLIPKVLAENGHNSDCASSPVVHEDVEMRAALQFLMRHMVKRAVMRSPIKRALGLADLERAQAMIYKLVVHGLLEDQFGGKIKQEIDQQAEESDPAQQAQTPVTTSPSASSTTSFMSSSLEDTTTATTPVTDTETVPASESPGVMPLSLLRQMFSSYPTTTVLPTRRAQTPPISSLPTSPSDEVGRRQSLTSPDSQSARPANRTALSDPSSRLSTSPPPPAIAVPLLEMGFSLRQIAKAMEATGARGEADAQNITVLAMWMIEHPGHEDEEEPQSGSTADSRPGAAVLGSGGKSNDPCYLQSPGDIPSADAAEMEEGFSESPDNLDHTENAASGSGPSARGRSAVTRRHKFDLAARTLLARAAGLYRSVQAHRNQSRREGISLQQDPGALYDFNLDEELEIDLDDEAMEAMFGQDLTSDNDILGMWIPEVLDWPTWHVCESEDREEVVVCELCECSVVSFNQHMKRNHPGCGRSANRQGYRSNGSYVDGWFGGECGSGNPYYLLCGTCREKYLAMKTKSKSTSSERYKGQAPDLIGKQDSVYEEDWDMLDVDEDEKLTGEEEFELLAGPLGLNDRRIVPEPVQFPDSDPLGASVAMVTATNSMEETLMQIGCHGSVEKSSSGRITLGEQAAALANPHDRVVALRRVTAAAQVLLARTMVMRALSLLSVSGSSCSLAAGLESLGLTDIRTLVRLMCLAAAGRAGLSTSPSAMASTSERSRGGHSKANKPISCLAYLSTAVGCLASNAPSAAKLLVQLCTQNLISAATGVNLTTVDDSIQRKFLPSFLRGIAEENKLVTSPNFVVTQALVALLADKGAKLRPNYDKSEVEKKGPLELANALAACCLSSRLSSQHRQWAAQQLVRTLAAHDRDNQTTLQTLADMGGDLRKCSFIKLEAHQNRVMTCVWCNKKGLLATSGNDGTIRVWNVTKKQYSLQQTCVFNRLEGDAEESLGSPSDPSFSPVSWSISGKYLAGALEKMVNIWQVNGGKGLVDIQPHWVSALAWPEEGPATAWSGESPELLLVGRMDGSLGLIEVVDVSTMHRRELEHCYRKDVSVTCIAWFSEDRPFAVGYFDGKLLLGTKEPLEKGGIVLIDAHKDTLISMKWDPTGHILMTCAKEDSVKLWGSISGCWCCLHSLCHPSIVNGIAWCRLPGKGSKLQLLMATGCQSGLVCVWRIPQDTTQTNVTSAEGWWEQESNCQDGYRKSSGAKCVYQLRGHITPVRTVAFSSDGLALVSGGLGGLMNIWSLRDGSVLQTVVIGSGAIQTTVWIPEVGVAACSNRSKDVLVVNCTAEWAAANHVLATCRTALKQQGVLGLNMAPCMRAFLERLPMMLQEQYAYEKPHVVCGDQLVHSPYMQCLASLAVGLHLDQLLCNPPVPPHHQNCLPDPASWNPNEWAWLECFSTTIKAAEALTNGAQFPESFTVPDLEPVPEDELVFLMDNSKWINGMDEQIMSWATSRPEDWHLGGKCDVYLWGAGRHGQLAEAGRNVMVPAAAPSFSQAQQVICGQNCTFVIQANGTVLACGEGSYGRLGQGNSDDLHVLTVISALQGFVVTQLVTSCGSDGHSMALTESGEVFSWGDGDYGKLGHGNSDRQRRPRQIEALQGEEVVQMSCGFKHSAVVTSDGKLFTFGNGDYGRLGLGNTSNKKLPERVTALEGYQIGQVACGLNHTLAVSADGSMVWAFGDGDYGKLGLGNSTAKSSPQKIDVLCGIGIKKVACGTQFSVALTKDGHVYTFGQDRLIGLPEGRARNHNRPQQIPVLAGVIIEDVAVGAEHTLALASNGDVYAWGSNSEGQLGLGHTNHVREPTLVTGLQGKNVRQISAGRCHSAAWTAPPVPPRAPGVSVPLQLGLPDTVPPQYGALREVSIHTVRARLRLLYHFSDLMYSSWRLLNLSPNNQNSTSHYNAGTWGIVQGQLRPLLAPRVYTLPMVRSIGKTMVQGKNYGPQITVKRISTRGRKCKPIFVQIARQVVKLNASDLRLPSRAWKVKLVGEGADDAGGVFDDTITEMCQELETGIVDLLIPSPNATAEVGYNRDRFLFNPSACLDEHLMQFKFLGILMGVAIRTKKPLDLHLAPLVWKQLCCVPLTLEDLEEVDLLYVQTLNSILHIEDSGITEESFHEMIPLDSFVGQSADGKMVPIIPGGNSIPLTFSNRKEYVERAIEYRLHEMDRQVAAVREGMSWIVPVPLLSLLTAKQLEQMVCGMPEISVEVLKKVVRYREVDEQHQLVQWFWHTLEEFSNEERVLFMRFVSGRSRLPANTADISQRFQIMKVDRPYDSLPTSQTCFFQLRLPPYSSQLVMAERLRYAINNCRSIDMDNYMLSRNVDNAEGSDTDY

Tests used:
Assay in all cases: log2 fold change, soluble protein after heating vs DMSO (PISA); higher = thermal stabilisation; K562 lysate, 10 uM; active = over 0.2 and 3.5 SD of the protein, either way, in both replicates (recomputed)
alvocidib = compound: CN1CC[C@H](c2c(O)cc(O)c3c(=O)cc(-c4ccccc4Cl)oc23)[C@H](O)C1 [alvocidib]
Procedure, shortened: (§1)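 Values give the log-two fold change in thermal stability against solvent controls, from duplicates. Crude K562 extract at 1 mg/mL protein, made by dounce homogenisation in PBS pH 7.4 with 1 mM MgCl2, was treated with 10 μM compound for 30 min. After 3 min heating across 48°C-58°C, aliquots were pooled, adjusted to 0.5% NP-40 at 4°C and centrifuged at 21,000xg for 90 min. The supernatant was measured by TMTpro 16plex LC-MS/MS with channel sums equalised.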

Tubastatin A = compound: CN1CCc2c(c3ccccc3n2Cc2ccc(C(=O)NO)cc2)C1 [Tubastatin A]
Procedure, shortened: as §1

[1] = compound: CNC(=O)C1=CC=CC=C1NC2=NC(=NC=C2Cl)NC3=C(C=C(C=C3)N4CCOCC4)OC
Procedure, shortened: as §1

defactinib = compound: CNC(=O)c1ccc(Nc2ncc(C(F)(F)F)c(NCc3nccnc3N(C)S(C)(=O)=O)n2)cc1 [defactinib]
Procedure, shortened: as §1

[2] = compound: CNc1nc(-c2ccc3c(N)n[nH]c3c2)cc(N2C[C@@H](C(=O)NC3CCCCC3)CC[C@H]2C)n1
Procedure, shortened: as §1

encorafenib = compound: COC(=O)N[C@@H](C)CNc1nccc(-c2cn(C(C)C)nc2-c2cc(Cl)cc(NS(C)(=O)=O)c2F)n1 [encorafenib]
Procedure, shortened: as §1

[3] = compound: COC(=O)[C@H](CCSC)NC(=O)C1=C(C=C(C=C1)NC[C@H](CS)N)C2=CC=CC=C2
Procedure, shortened: as §1

alisertib = compound: COc1cc(Nc2ncc3c(n2)-c2ccc(Cl)cc2C(c2c(F)cccc2OC)=NC3)ccc1C(=O)O [alisertib]
Procedure, shortened: as §1

[4] = compound: COc1cc2nc(-c3cc(F)ccc3O)nc(N[C@@H]3CNC[C@H]3C(C)(C)O)c2cc1OC
Procedure, shortened: as §1

gefitinib = compound: COc1cc2ncnc(Nc3ccc(F)c(Cl)c3)c2cc1OCCCN1CCOCC1 [gefitinib]
Procedure, shortened: as §1

Measured: log2 fold change

HIBCH (UniProt Q6NVY1)
inactive: alvocidib 0.033 | Tubastatin A 0.022 | [1] 0.004 | defactinib -0.022 | [2] -0.029 | encorafenib -0.04 | [3] 0.018 | alisertib 0 | [4] -0.028 | gefitinib 0.001

HK2 (UniProt P52789)
inactive: alvocidib 0.006 | Tubastatin A -0.17 | [1] 0.024 | defactinib 0.017 | [2] -0.006 | encorafenib 0 | [3] 0.165 | alisertib 0.023 | [4] -0.031 | gefitinib -0.016

HMG20B (UniProt Q9P0W2)
inactive: alvocidib -0.035 | Tubastatin A -0.103 | [1] -0.025 | defactinib 0 | [2] 0 | encorafenib 0 | [3] 0.039 | alisertib 0.043 | [4] 0.011 | gefitinib 0.001

HSP90AB3P (UniProt Q58FF7)
inactive: alvocidib 0.096 | Tubastatin A -0.024 | [1] -0.041 | defactinib -0.011 | [2] -0.055 | encorafenib 0.03 | [3] 0.038 | alisertib -0.014 | [4] -0.022 | gefitinib -0.092

HMGB2 (UniProt P26583)
inactive: alvocidib 0.134 | Tubastatin A 0.027 | [1] 0.023 | defactinib 0.003 | [2] 0.016 | encorafenib -0.006 | [3] -0.081 | alisertib -0.044 | [4] -0.022 | gefitinib -0.028

HSPA1A (UniProt P0DMV8)
inactive: alvocidib 0.047 | Tubastatin A 0.079 | [1] -0.023 | defactinib 0.008 | [2] -0.031 | encorafenib -0.01 | [3] -0.009 | alisertib 0.019 | [4] -0.002 | gefitinib -0.008

HSD17B12 (UniProt Q53GQ0)
inactive: alvocidib 0.012 | Tubastatin A -0.089 | [1] -0.11 | defactinib -0.021 | [2] -0.046 | encorafenib -0.016 | [3] 0.035 | alisertib 0.022 | [4] 0.009 | gefitinib -0.131

HNRNPUL2 (UniProt Q1KMD3)
inactive: alvocidib -0.001 | Tubastatin A 0.007 | [1] 0.004 | defactinib 0.002 | [2] -0.009 | encorafenib -0.023 | [3] 0.105 | alisertib 0.009 | [4] 0.019 | gefitinib -0.023

Looked up one by one from the list above (2):
HIBCH (UniProt Q6NVY1)
inactive: alvocidib 0.033 | Tubastatin A 0.022 | [1] 0.004 | defactinib -0.022 | [2] -0.029 | encorafenib -0.04 | [3] 0.018 | alisertib 0 | [4] -0.028 | gefitinib 0.001

HSD17B12 (UniProt Q53GQ0)
inactive: alvocidib 0.012 | Tubastatin A -0.089 | [1] -0.11 | defactinib -0.021 | [2] -0.046 | encorafenib -0.016 | [3] 0.035 | alisertib 0.022 | [4] 0.009 | gefitinib -0.131

Next part.

HSDL2 (UniProt Q6YN16)
inactive: alvocidib -0.006 | Tubastatin A 0.052 | [1] -0.025 | defactinib 0.03 | [2] 0.038 | encorafenib -0.022 | [3] 0.03 | alisertib 0.011 | [4] -0.017 | gefitinib -0.015

HLCS (UniProt P50747)
inactive: alvocidib -0.015 | Tubastatin A 0.036 | [1] 0.018 | defactinib 0.017 | [2] 0.025 | encorafenib 0.003 | [3] 0.053 | alisertib -0.01 | [4] 0.038 | gefitinib 0.013

HIP1 (UniProt O00291)
inactive: alvocidib -0.006 | Tubastatin A -0.006 | [1] 0.006 | defactinib -0.03 | [2] 0.019 | encorafenib 0.018 | [3] 0.015 | alisertib -0.041 | [4] 0.002 | gefitinib -0.008

HNRNPL (UniProt P14866)
inactive: alvocidib 0.035 | Tubastatin A -0.174 | [1] 0.016 | defactinib 0.015 | [2] -0.02 | encorafenib 0 | [3] 0.073 | alisertib -0.026 | [4] -0.007 | gefitinib -0.019

HEXD isoform 2 (UniProt Q8WVB3)
inactive: alvocidib 0.002 | Tubastatin A -0.008 | [1] -0.181 | defactinib -0.028 | encorafenib -0.065 | [3] 0.231 | [4] 0.045

HINT1 (UniProt P49773)
inactive: alvocidib 0.053 | Tubastatin A 0.059 | [1] -0.024 | defactinib 0.081 | [2] -0.127 | encorafenib 0.023 | [3] -0.098 | alisertib 0.021 | [4] -0.036 | gefitinib -0.116

HSPA5 (UniProt P11021)
inactive: alvocidib 0.007 | Tubastatin A 0.05 | [1] -0.033 | defactinib -0.003 | [2] -0.056 | encorafenib 0.022 | [3] -0.015 | alisertib 0.012 | [4] -0.012 | gefitinib -0.002

HMCN1 (UniProt Q96RW7)
inactive: alvocidib 0.151 | Tubastatin A 0.077 | defactinib -0.023 | alisertib 0.035 | gefitinib -0.035

HSPA6 (UniProt P17066)
inactive: alvocidib -0.045 | Tubastatin A 0.033 | [1] -0.022 | defactinib -0.025 | [2] -0.69 | encorafenib -0.003 | [3] 0.033 | alisertib 0.001 | [4] 0.017 | gefitinib -0.011

HEXA (UniProt P06865)
inactive: alvocidib 0.002 | Tubastatin A 0.023 | [1] -0.013 | defactinib 0.007 | [2] 0.044 | encorafenib -0.01 | [3] 0.005 | alisertib 0.017 | [4] -0.02 | gefitinib -0.022

HNRNPUL1 (UniProt M0R247)
inactive: alvocidib -0.042 | [1] -0.03

HNRNPK isoform 2 (UniProt P61978)
inactive: alvocidib 0.001 | Tubastatin A -0.097 | [1] 0.016 | defactinib -0.029 | [2] -0.005 | encorafenib 0.007 | [3] -0.023 | alisertib 0.005 | [4] -0.01 | gefitinib 0.025

HSP90AA1 isoform 2 (UniProt P07900)
inactive: alvocidib 0.019 | Tubastatin A 0.047 | [1] -0.012 | defactinib -0.002 | [2] 0.005 | encorafenib -0.032 | [3] 0.024 | alisertib 0.01 | [4] 0.002 | gefitinib -0.015

HNRNPH2 (UniProt P55795)
inactive: alvocidib -0.003 | Tubastatin A -0.209 | [1] 0.02 | defactinib 0.019 | [2] -0.043 | encorafenib 0.037 | [3] -0.032 | alisertib -0.004 | [4] -0.007 | gefitinib -0.047

HPS5 (UniProt Q9UPZ3)
inactive: alvocidib -0.11 | Tubastatin A -0.157 | [1] -0.034 | defactinib -0.083 | [2] -0.044 | alisertib 0.008 | [4] 0.148 | gefitinib 0.185

HSCB (UniProt Q8IWL3)
inactive: alvocidib -0.034 | Tubastatin A 0.014 | [1] 0.006 | defactinib 0.126 | [2] 0.038 | encorafenib -0.1 | [3] -0.071 | [4] 0.006

HERC1 (UniProt Q15751)
inactive: alvocidib -0.004 | Tubastatin A -0.059 | [1] 0.003 | defactinib 0.002 | [2] -0.015 | encorafenib 0.025 | [3] 0.013 | alisertib -0.014 | [4] 0.021 | gefitinib -0.005

HMBOX1 isoform 5 (UniProt Q6NT76)
inactive: alvocidib -0.078 | Tubastatin A -0.003 | [1] -0.005 | defactinib 0.012 | [2] 0.066 | encorafenib -0.037 | [3] -0.016 | alisertib -0.156 | [4] 0.02 | gefitinib -0.091

HELB (UniProt Q8NG08)
inactive: alvocidib -0.028 | Tubastatin A -0.028 | [1] 0.011 | defactinib -0.016 | [2] 0.024 | encorafenib 0.009 | [3] -0.011 | alisertib 0.012 | [4] 0.021 | gefitinib -0.007

HNRNPF (UniProt P52597)
inactive: alvocidib -0.016 | Tubastatin A -0.156 | [1] 0.01 | defactinib -0.013 | [2] -0.056 | encorafenib 0.035 | [3] -0.034 | alisertib 0.023 | [4] -0.009 | gefitinib -0.021

HMGN3 (UniProt Q15651)
inactive: alvocidib -0.017 | Tubastatin A 0.011 | [1] -0.068 | [2] 0.032 | alisertib -0.055 | [4] -0.004 | gefitinib -0.062

HIST2H2AA3 (UniProt Q6FI13)
inactive: alvocidib 0.202 | Tubastatin A 0.092 | [1] -0.002 | defactinib -0.032 | [2] 0.277 | encorafenib -0.027 | [3] 0.086 | alisertib -0.097 | [4] -0.027 | gefitinib -0.086

HSD17B11 (UniProt Q8NBQ5)
inactive: alvocidib 0.013 | Tubastatin A 0.022 | [1] -0.019 | defactinib 0.014 | [2] -0.002 | encorafenib -0.008 | [3] -0.028 | alisertib -0.025 | [4] 0.002 | gefitinib 0.039
